This experiment concerns MX-1 breast xenograft, nude mice, tumor weight T/C. Briefly: NCI In Vivo Anticancer Drug Screen. Data for tumor model Human Mammary Carcinoma MX-1 Xenograft (intrarenal inoculation) in NU/NU Swiss (nude) mice. To be noted: T/C endpoint: mean tumor weight change, higher T/C = larger tumour; for T/C: evaluated on day 11. The essentials: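 Antitumour effect measured in vivo against vehicle controls, expressed as T/C.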
(In general: A xenograft is tissue or cells of one species grown in another, often human tumour cells in immunodeficient mice.)

Setting [1] is: dose: 600.0 mg/kg/injection, schedule: Q04DX003 (sc), vehicle: saline.
The mark [2] stands for this setting: dose: 1200.0 mg/kg/injection, schedule: Q04DX003 (sc), vehicle: saline.
Setting [3] is: dose: 800.0 mg/kg/injection, schedule: Q04DX003 (sc), vehicle: saline with Tween-80.
The mark [4] stands for this setting: dose: 1200.0 mg/kg/injection, schedule: Q04DX003 (sc), vehicle: Klucel (hydroxypropylcellulose) (HPC).
[5] abbreviates: dose: 600.0 mg/kg/injection, schedule: Q04DX003 (sc), vehicle: saline with Tween-80.
Where [6] appears, read: dose: 2400.0 mg/kg/injection, schedule: Q04DX003 (sc), vehicle: Klucel (hydroxypropylcellulose) (HPC).

The record followed here is PubChem BioAssay AID296 (DTP/NCI, 2004).

The list is a part of this screen's results and no random one: it is rich in T/C values a quarter to a half above the control, in often repeated tests (any T/C) and in doses without a T/C. Other doses and runs of a compound stand elsewhere. T/C: endpoint of the treated group in % of that of the vehicle group. Schedule codes are those of the source, read here as Q, the interval in days (D) or hours (H), X, the number of doses. Some T/C values are followed by the survivors on the day toxicity was checked, most often the fifth; without a count, all were alive then. Some entries give survivors of the animals treated and no T/C: the source files T/C as zero there, which appears to mark a toxic dose or a test without result, not a measured value. Survivors were counted at the toxicity check, usually on the fifth day, unless a day is given; later deaths do not show. Some entries were tested several times; the results are listed from low to high.

Turning to `O=CC(=O)c1ccc(O)cc1`, the survivor count is given as 3 of 6 on day 11 under setting [1] and 0 of 6 on day 11 under setting [2].

Turning to `Nc1n[n+](-c2ccccc2)no1`, the survivor count (dose: 150.0 mg/kg/injection, schedule: Q04DX003 (sc), vehicle: water) is 1 of 6 on day 11.

For `CC(=O)c1cccc(NC2C(N)C(NC(=O)N(C)C)(C(C)O)C(C)(O)C2(O)COC(=O)c2c(C)cccc2O)c1` (centres undefined), under “dose: 50.0 mg/kg/injection, schedule: Q04DX003 (ip), vehicle: suspension in saline”, the survivor count is given as 1 of 6 on day 11.

Regarding `BrC[P+](CBr)(CBr)CBr`, the survivor count under setting [3] is 2 of 6 on day 11.

As for `O=S(=O)(SC(S(=O)(=O)c1ccccc1)S(=O)(=O)c1ccccc1)c1ccccc1`, under setting [4], the T/C is 128 % of control.

With `COc1cccc2c1C(=O)c1c(O)c3c(c(O)c1C2=O)C[C@@](O)(C(C)=O)C[C@@H]3OC1CC(N(Cc2ccccc2)Cc2ccccc2)C(O)C(C)O1` (some centres undefined), the survivor count reads like this: (dose: 50.0 mg/kg/injection, schedule: Q01DX010 (sc), vehicle: water) 0 of 3 on day 11, 0 of 6 on day 11, 1 of 3 on day 11; (dose: 100.0 mg/kg/injection, schedule: Q01DX010 (sc), vehicle: water) 0 of 3 on day 11 and 0 of 6 on day 11.

`C[CH2][Sn]([CH2]C)([O]S(C)(=O)=O)[O]S(C)(=O)=O`: where the note is “dose: 50.0 mg/kg/injection, schedule: Q04DX003 (sc), vehicle: saline with Tween-80”, the survivor count is listed as 3 of 6 on day 11.

Take `O=C1C(O)=C(c2ccccc2)C(=O)C(O)=C1c1ccccc1`: the survivor count under setting [1] is 0 of 6 on day 11.

On to `CC(O)C1(O)C(O)CC(OC2c3cc4c(c(O)c3[C@@H]3C[C@@]2(C)OC32C=c3cc[nH]c3=N2)C(=O)c2cccc(O)c2C4=O)OC1C` (some centres undefined), for which, where the note is “dose: 37.5 mg/kg/injection, schedule: Q04DX003 (ip), vehicle: saline with Tween-80”, the T/C was 125 % of control. In addition, the survivor count is, setting by setting: (dose: 75.0 mg/kg/injection, schedule: Q04DX003 (ip), vehicle: saline with Tween-80) 0 of 6 on day 11; (dose: 150.0 mg/kg/injection, schedule: Q04DX003 (ip), vehicle: saline with Tween-80) 0 of 6 on day 11; (dose: 300.0 mg/kg/injection, schedule: Q04DX003 (ip), vehicle: saline with Tween-80) 0 of 6 on day 11.

As for `O=C1CC2(C(=O)N1CN1CCCCC1)c1ccccc1-c1ccccc12`, the T/C (dose: 100.0 mg/kg/injection, schedule: Q04DX003 (sc), vehicle: Klucel (hydroxypropylcellulose) (HPC)) was 136 % of control.

Turning to `C=C1CC2(OC1=O)C(=O)N(C)c1ccc(I)cc12` (centres undefined), the T/C (dose: 2400.0 mg/kg/injection, schedule: Q04DX003 (sc), vehicle: suspension in saline) is 136 % of control [4 of 6 alive on day 11].

As for `CN(C=O)C(C(=O)Nc1cccc2c(OC(=O)C(N(C)C=O)(N(C)C=O)N(C)C=O)c(N=Nc3ccc(S(=O)(=O)Nc4nccs4)cc3)cc(N=Nc3ccc(S(=O)(=O)Nc4nccs4)cc3)c12)(N(C)C=O)N(C)C=O` (tested in a mixture with another compound), the T/C was 142 % of control under setting [5] and 148 % of control (dose: 1200.0 mg/kg/injection, schedule: Q04DX003 (sc), vehicle: saline with Tween-80).

With `CC(=O)OC1OC(=O)C(C)(C(C)=O)C1C` (centres undefined), where the note is “dose: 40.0 mg/kg/injection, schedule: Q04DX003 (ip), vehicle: distilled water + alcohol”, the T/C was 129 % of control [5 of 6 alive on day 11].

For `NC(=O)/C=C/C(=O)c1c(Cl)cccc1Cl`, the T/C (dose: 18.0 mg/kg/injection, schedule: Q04DX003 (sc), vehicle: saline with Tween-80) was 126 % of control. Under “dose: 72.0 mg/kg/injection, schedule: Q04DX003 (sc), vehicle: saline with Tween-80”, the survivor count is on record as 0 of 6 on day 11.

Turning to `O=C(Nc1nncs1)c1ccncc1`, the T/C (dose: 300.0 mg/kg/injection, schedule: Q04DX003 (sc), vehicle: saline with Tween-80) was 125 % of control.

For the molecule `C=CCOCC1CO1` (centres undefined), the survivor count under setting [1] is recorded as 0 of 6 on day 11; the survivor count under setting [2] was 0 of 6 on day 11; the survivor count (dose: 2400.0 mg/kg/injection, schedule: Q04DX003 (sc), vehicle: saline) was 0 of 6 on day 11.

Take `CN(C)c1nc(N(C)C)nc(N(C)C)n1`: the survivor count runs as follows: (dose: 60.0 mg/kg/injection, schedule: Q01DX008 (ip), vehicle: saline) 0 of 5; (dose: 120.0 mg/kg/injection, schedule: Q01DX008 (ip), vehicle: saline) 0 of 5; (dose: 200.0 mg/kg/injection, schedule: Q01DX010 (sc), vehicle: Klucel (hydroxypropylcellulose) (HPC)) 1 of 2 on day 11; (dose: 240.0 mg/kg/injection, schedule: Q01DX008 (ip), vehicle: saline) 0 of 5; (dose: 480.0 mg/kg/injection, schedule: Q01DX008 (ip), vehicle: saline) 0 of 5; under setting [5], 3 of 6 on day 11.

Regarding `COc1cc2cc3c4cc(OC)c(OC)cc4cc[n+]3c(C)c2cc1OC` (tested in a mixture with another compound), the survivor count (dose: 300.0 mg/kg/injection, schedule: Q04DX003 (sc), vehicle: saline) is 3 of 6 on day 11 and the survivor count under setting [1] is reported as 0 of 6 on day 11.

For the molecule `CN1CCN(c2ccc3nc(-c4ccc5nc(-c6ccc(O)cc6)[nH]c5c4)[nH]c3c2)CC1`, where the note is “dose: 200.0 mg/kg/injection, schedule: Q04DX003 (sc), vehicle: saline”, the T/C is 144 % of control [4 of 6 alive on day 11]. Further, the survivor count is 3 of 6 on day 11 (dose: 1000.0 mg/kg/injection, schedule: Q04DX003 (sc), vehicle: suspension in saline) and 0 of 6 on day 11 (dose: 2000.0 mg/kg/injection, schedule: Q04DX003 (sc), vehicle: suspension in saline).

On to `Clc1ccc2nnnn2n1`, for which the survivor count is, setting by setting: (dose: 400.0 mg/kg/injection, schedule: Q04DX003 (sc), vehicle: saline with Tween-80) 3 of 6 on day 11; under setting [3], 2 of 6 on day 11.

`NC(=O)c1ncn(C2OC(CO)C(O)C2O)n1` (centres undefined): for the setting “dose: 1800.0 mg/kg/injection, schedule: Q04DX003 (sc), vehicle: saline”, the survivor count is recorded as 2 of 6 on day 11.

Regarding `c1ccc([C@H]2CN3CCSC3=N2)cc1`, the survivor count (dose: 120.0 mg/kg/injection, schedule: Q04DX003 (sc), vehicle: saline) is 0 of 6 on day 11.

Regarding `O=c1[nH]c(=O)n(C2CC(O)C(CO)O2)cc1I` (centres undefined), for the setting “dose: 800.0 mg/kg/injection, schedule: Q01DX010 (sc), vehicle: saline with Tween-80”, the survivor count is recorded as 0 of 3 on day 11.

For the molecule `CC1=CC(=Nc2ccc(N(CCCl)CCCl)cc2)C=C(C)C1=O`, under setting [6], the survivor count is reported as 1 of 6 on day 11.

As to `C[C@]12CCC(=O)C=C1CC[C@@H]1[C@@H]2C(=O)C[C@@]2(C)[C@H]1CC[C@]2(O)C(=O)CO`, the survivor count by setting is: under setting [4], 3 of 6 on day 11; under setting [6], 3 of 6 on day 11.

As to `O=C(O)Cc1cccc2c(=O)cc(-c3ccccc3)oc12`, the T/C (dose: 200.0 mg/kg/injection, schedule: Q04DX003 (ip), vehicle: suspension in saline) is 147 % of control. Moreover, the survivor count (dose: 400.0 mg/kg/injection, schedule: Q04DX003 (ip), vehicle: suspension in saline) is 0 of 6 on day 11 and the survivor count (dose: 800.0 mg/kg/injection, schedule: Q04DX003 (ip), vehicle: suspension in saline) is given as 0 of 6 on day 11.

For `COc1cccc2c1C(=O)c1c(O)c3c(c(O)c1C2=O)CC(O)(C(=O)CO)CC3OC1CC(N)C(O)C(C)O1` (centres undefined), the survivor count (dose: 100.0 mg/kg/injection, schedule: Q01DX010 (sc), vehicle: saline) is on record as 1 of 6 on day 11 and the survivor count (dose: 200.0 mg/kg/injection, schedule: Q01DX010 (sc), vehicle: saline) is recorded as 0 of 6 on day 11.
